PubChem BioAssay AID1259308 – NCATS | 2017

Aim: 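Knock-downs that increase output of a recombinant reporter protein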 (primary screen)
Cells: human HEK293 embryonic kidney cells stably expressing firefly luciferase (HEK-CMV-Luc2-Hygro)
Reagents: single siRNA against human genes, 0.8 pmol siRNA per well
Time to read-out: 72 h
Measured: 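Luciferase light (ONE-Glo) measured on one replicate plate set and viability (CellTiter-Glo) on the other, scaled to a negative control siRNA, with robust z-scores and luciferase per cell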
Reading the numbers: total luciferase, z-score: higher = more reporter protein produced
Active means: 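An siRNA counts as active if its total luciferase robust z-score exceeds 3; genes with two or more such siRNAs out of three were retested with fresh siRNAs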
Meaning of the calls: active = raised luciferase; inactive = no rise
This is one part, drawn at random, of about 59,000 reagents tested. About 1,510 of them (2.6%) count as active. 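Calls use total luciferase alone and ignore viability, so some active siRNAs may act by altering cell number.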 Unmarked entries are inactive. Reagents against one gene are numbered here. Not all columns of the deposit are shown. Reagent sequences are not shown.

Target gene,reagent no.,"total luciferase, z-score"
HMGCR (GeneID 3156),1,-1.28
HMGCR (GeneID 3156),2,-0.321
HMGCR (GeneID 3156),3,0.0501
MN1 (GeneID 4330),1,0.616
MN1 (GeneID 4330),2,-0.235
MN1 (GeneID 4330),3,0.981
BAAT (GeneID 570),1,-0.408
BAAT (GeneID 570),2,1.97
BAAT (GeneID 570),3,-0.563
GLRA3 (GeneID 8001),1,0.175
GLRA3 (GeneID 8001),2,-0.621
GLRA3 (GeneID 8001),3,-0.999
PRICKLE3 (GeneID 4007),1,-0.27
PRICKLE3 (GeneID 4007),2,-0.946
PRICKLE3 (GeneID 4007),3,0.15

The list goes on (2 carried over from the part before).
Target gene,reagent no.,"total luciferase, z-score"
PRICKLE3 (GeneID 4007),2,-0.946
PRICKLE3 (GeneID 4007),3,0.15
COPS8 (GeneID 10920),1,-0.474
COPS8 (GeneID 10920),2,-0.109
COPS8 (GeneID 10920),3,-0.309
ALKBH3 (GeneID 221120),1,-1.45
ALKBH3 (GeneID 221120),2,0.939
ALKBH3 (GeneID 221120),3,-0.775
NPSR1 (GeneID 387129),1,0.255
NPSR1 (GeneID 387129),2,-1.45
NPSR1 (GeneID 387129),3,0.112
